These are yes or no findings as the source states them, for the method shown. In cells and extracts the contact can be indirect. Some entries that bind do so weakly or less than the wild type. For some of these results: Sequences can lack the tags named with a protein.
Legend:
[1] = molecular target: T1, GST::SXL fusion protein (Drosophila), P19339; assay: pull-down; GST fusion proteins bound to glutathione sepharose beads, incubated with crude extracts of 3-8 hour embryos in NET buffer (150 mM NaCl, 50 mM Tris pH 7.5, 5 mM EDTA) with 0.5% NP-40; SNF detected by Western blot; only the target purified; conditions: remark: other sources report otherwise
T1 chain: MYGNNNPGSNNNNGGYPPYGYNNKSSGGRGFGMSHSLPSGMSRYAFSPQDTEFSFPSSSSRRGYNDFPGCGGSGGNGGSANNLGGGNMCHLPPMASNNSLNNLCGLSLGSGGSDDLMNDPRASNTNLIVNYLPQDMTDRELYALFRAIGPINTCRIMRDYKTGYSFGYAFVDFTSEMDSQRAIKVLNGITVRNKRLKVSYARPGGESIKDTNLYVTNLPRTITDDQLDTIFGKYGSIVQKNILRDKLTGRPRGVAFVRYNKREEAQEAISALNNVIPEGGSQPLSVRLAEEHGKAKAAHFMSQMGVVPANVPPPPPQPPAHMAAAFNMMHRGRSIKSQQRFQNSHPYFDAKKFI

[2] = molecular target: T2, U2A', endogenous in embryo nuclear extracts (Drosophila (endogenous in embryos)) (UniProt Q9V4Q8); assay: co-IP; nuclear extracts of 3-18 hour embryos, NET buffer with 0.5% NP-40; immunoprecipitation with antibodies against PPS, U2A' or SNF, Western blot for SNF or U1-70K (Figure 4)
T2 sequence: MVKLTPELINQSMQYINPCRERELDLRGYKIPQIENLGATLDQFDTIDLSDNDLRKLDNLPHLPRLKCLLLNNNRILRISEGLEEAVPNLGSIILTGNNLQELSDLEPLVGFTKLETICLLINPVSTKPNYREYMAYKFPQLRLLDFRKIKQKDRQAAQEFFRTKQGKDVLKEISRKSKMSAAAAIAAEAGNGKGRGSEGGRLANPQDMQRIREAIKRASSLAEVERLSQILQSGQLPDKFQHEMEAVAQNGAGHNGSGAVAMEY

[3] = molecular target: T2, U2A', endogenous in embryo nuclear extracts (Drosophila (endogenous in embryos)); assay: condition: only extract pretreated with RNase A and RNase T1; co-IP; as Figure 4B, but nuclear extract pretreated overnight at 4°C with RNase A and RNase T1; NET buffer with 0.5% NP-40
[4] = molecular target: T3, Sans-fille (SNF), endogenous in embryo extracts (Drosophila (endogenous in embryos)) (UniProt P43332); assay: co-IP; nuclear extracts of 3-18 hour embryos, NET buffer with 0.5% NP-40; immunoprecipitation with antibodies against PPS, U2A' or SNF, Western blot for SNF or U1-70K (Figure 4)
T3 sequence: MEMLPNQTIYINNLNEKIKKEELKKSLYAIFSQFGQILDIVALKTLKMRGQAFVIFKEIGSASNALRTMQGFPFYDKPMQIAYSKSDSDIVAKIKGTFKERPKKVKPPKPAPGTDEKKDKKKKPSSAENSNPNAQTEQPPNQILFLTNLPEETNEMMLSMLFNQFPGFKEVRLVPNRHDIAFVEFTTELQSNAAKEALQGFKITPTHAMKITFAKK

B1: Sans-fille (SNF), endogenous in embryo extracts, P43332 1-216 (protein)
chain: MEMLPNQTIYINNLNEKIKKEELKKSLYAIFSQFGQILDIVALKTLKMRGQAFVIFKEIGSASNALRTMQGFPFYDKPMQIAYSKSDSDIVAKIKGTFKERPKKVKPPKPAPGTDEKKDKKKKPSSAENSNPNAQTEQPPNQILFLTNLPEETNEMMLSMLFNQFPGFKEVRLVPNRHDIAFVEFTTELQSNAAKEALQGFKITPTHAMKITFAKK
Q: For B1, which binding [1] is on record?
A: binds

B2: Sans-fille (SNF), endogenous in embryo extracts (protein, UniProt P43332 1-216)
chain: MEMLPNQTIYINNLNEKIKKEELKKSLYAIFSQFGQILDIVALKTLKMRGQAFVIFKEIGSASNALRTMQGFPFYDKPMQIAYSKSDSDIVAKIKGTFKERPKKVKPPKPAPGTDEKKDKKKKPSSAENSNPNAQTEQPPNQILFLTNLPEETNEMMLSMLFNQFPGFKEVRLVPNRHDIAFVEFTTELQSNAAKEALQGFKITPTHAMKITFAKK
Q: What does the source list for B2?
A: binding [2]: binds; binding [3]: no binding

B3: U1-70K, endogenous in embryo nuclear extracts (protein, UniProt P17133 1-448)
chain: MTQYLPPNLLALFAAREPIPFMPPVDKLPHEKKSRGYLGVAKFMADFEDPKDTPLPKTVETRQERLERRRREKAEQVAYKLEREIALWDPTEIKNATEDPFRTLFIARINYDTSESKLRREFEFYGPIKKIVLIHDQESGKPKGYAFIEYEHERDMHAAYKHADGKKIDSKRVLVDVERARTVKGWLPRRLGGGLGGTRRGGNDVNIKHSGREDNERERERYRLEREREDREGPGRGGGSNGLDARPGRGFGAERRRSRSRERRDRERDRGRGAVASNGRSRSRSRERRKRRAGSRERYDEFDRRDRRDRERERDRDREREKKKKRSKSRERESSRERRERKRERRDRERGTGSGGDVKERKPDFRDMDVIKIKEEPVDDGYPTFDYQNATIKREIDDEDEEKYRPPPAHHNMFSVPPPPILGRGNASTNPNPDNGQQSSGDPSWWRQ
Q: With B3 as the binder, how does the binding [4] read?
A: binds

From article PMC2832672
